# Values from PubChem BioAssay AID1508588 (Peter MacCallum Cancer Centre, 2020)
# Purpose: 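Which gene losses make BRAF-mutant melanoma cells more responsive to vemurafenib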 (primary screen)
# Cell system: human WM266.4 melanoma cells (BRAF V600 mutant)
# Knock-down reagent: siRNA pool against human genes, 40 nM
# Time to read-out: 96 h from transfection to read-out
# Treatment: vemurafenib 300 nM (about IC25), added 48 h after transfection, for 48 h; comparison arm got DMSO vehicle only
# Detection: 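Cell gain (DAPI nuclei at end minus before drug, mean of two replicates) and medium lactate by absorbance per cell, both as ratio to non-targeting siRNA, also grouped into fold-change classes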
# Direction: cell gain with vemurafenib: higher = more cell gain than with non-targeting siRNA; lactate per cell with vemurafenib: higher = more lactate made per cell
# Hit rule: 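Enhancement is called by pairing each knock-down's vehicle-arm and drug-arm fold-change classes for viability or glycolysis; which class combinations qualify is not given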
# Calls: active = enhances vemurafenib effect; inactive = no enhancement seen
# The deposit covers about 18,000 reagents; shown is a random part of them. Over the whole deposit, 790 (4.4%) were called active. 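Calls rest on a combination of fold-change classes in drug and vehicle arms, not all shown here.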 Entries without a mark were called inactive. Reagents against one gene are numbered here. Some reagents were tested in more than one well and are listed for each.
target gene,reagent,cell gain with vemurafenib,lactate per cell with vemurafenib
E2F7,1,0.81,0.94
KY,1,0.01,0.17
BMP2K,1,0.41,1.17
C1QL3,1,0.63,0.26
BARHL1,1,0.97,1.03
CAPN6,1,0.77,0.78
PAF1,1,0.77,0.84
IKBKE,1,0.19,1.6
CD207,1,-0.01 (active),-0.27
DHX29,1,0.53,1.65
LVRN,1,0.42,1.22
LVRN,1,0.29,1.07
RXRB,1,0.58,0.57
H2AC14,1,0.86 (active),0.47
EIF2B5,1,0.76,0.75
LIPJ,1,1.15,0.38
DNA2,1,0.11,1.07
LAMP2,1,0.76,1.03
DHX33,1,0.42,1.18
PRKX,1,0.7,0.57
C22orf31,1,1.04,1.14
GPHA2,1,0.74,0.54
SULT1A4,1,0.54,1.52
GOLGA6B,1,0.78,0.92
PIAS3,1,0.98,0.73
NAE1,1,0.73,1.66
ANAPC11,1,0.98,1.17
EPCIP,1,0.29,0.58
CTR9,1,0.44 (active),0.58
WNT5B,1,0.96,0.68
BECN1,1,0.68,1.15
ATP6V0E2,1,0.59,0.94
UBA52,1,0.05,1.6
CCNYL1,1,0.72,1.14
ZNF770,1,-0.06,1.54
PRKCB,1,0.54,0.76
MAP3K4,1,0.52,1.12
KLHL34,1,0.95,0.66
PRR7,1,0.6,0.85
MBOAT1,1,0.57,1.45
GTPBP2,1,0.65,0.64
TOB1,1,0.47,0.74
CAPN11,1,0.67,1.06
TMEM163,1,0.46,1.36
HACD1,1,0.81,0.57
OBSCN,1,0.39,1.44
OBSCN,2,0.51,1.17
PES1,1,0.09,1.7
NFU1,1,0.56 (active),0.66
APC2,1,0.01,0.68
BLOC1S4,1,0.59,1.4
EFHC1,1,0.71,1.13
RASSF2,1,0.4,1.01
OR4L1,1,0.47,1.08
IL7,1,0.56,0.86
UBE2M,1,0.68,1.84
CCZ1B,1,0.88,1.1
MCHR1,1,0.56,0.55
TMEM258,1,0.34,1.98
SEMA6B,1,1 (active),0.57
CDHR5,1,0.76,1.01
OPN1SW,1,0.01,2.84
SYTL3,1,0.81,1.04
HCFC1R1,1,0.47,0.88
CENPB,1,1.22,0.7
TAS2R10,1,0.34,1.07

Part of the list above, set out differently.
PIAS3
- cell gain with vemurafenib: 0.98
- lactate per cell with vemurafenib: 0.73

NAE1
- cell gain with vemurafenib: 0.73
- lactate per cell with vemurafenib: 1.66

ANAPC11
- cell gain with vemurafenib: 0.98
- lactate per cell with vemurafenib: 1.17

EPCIP
- cell gain with vemurafenib: 0.29
- lactate per cell with vemurafenib: 0.58

CTR9
- cell gain with vemurafenib: 0.44 (active)
- lactate per cell with vemurafenib: 0.58

WNT5B
- cell gain with vemurafenib: 0.96
- lactate per cell with vemurafenib: 0.68

BECN1
- cell gain with vemurafenib: 0.68
- lactate per cell with vemurafenib: 1.15

ATP6V0E2
- cell gain with vemurafenib: 0.59
- lactate per cell with vemurafenib: 0.94

UBA52
- cell gain with vemurafenib: 0.05
- lactate per cell with vemurafenib: 1.6

CCNYL1
- cell gain with vemurafenib: 0.72
- lactate per cell with vemurafenib: 1.14

ZNF770
- cell gain with vemurafenib: -0.06
- lactate per cell with vemurafenib: 1.54

PRKCB
- cell gain with vemurafenib: 0.54
- lactate per cell with vemurafenib: 0.76

MAP3K4
- cell gain with vemurafenib: 0.52
- lactate per cell with vemurafenib: 1.12

KLHL34
- cell gain with vemurafenib: 0.95
- lactate per cell with vemurafenib: 0.66

PRR7
- cell gain with vemurafenib: 0.6
- lactate per cell with vemurafenib: 0.85

MBOAT1
- cell gain with vemurafenib: 0.57
- lactate per cell with vemurafenib: 1.45

GTPBP2
- cell gain with vemurafenib: 0.65
- lactate per cell with vemurafenib: 0.64

TOB1
- cell gain with vemurafenib: 0.47
- lactate per cell with vemurafenib: 0.74

Additional reagents follow:
target gene,reagent,cell gain with vemurafenib,lactate per cell with vemurafenib
CDS1,1,0.4,0.89
RPS8,1,0.03,0.53
METTL21A,1,0.49,1.36
METAP2,1,0.25 (active),0.66
MTRFR,1,0.8,1.06
PRR5,1,0.87,0.88
UBE2C,1,0.69,1.2
SIRPA,1,0.91,1.06
PLEKHG7,1,0.92,1.09
PLEKHG7,2,0.55,1.03
ZNF572,1,0.45,0.66
DCAF12,1,0.65,1
TOLLIP,1,0.33,1.54
KRTAP10-9,1,0.82,0.76
HAPSTR1,1,0.98,0.42
APOBEC1,1,0.73,0.65
NCOA7,1,0.22,1.78
C1QC,1,0.13,0.87
FGF20,1,0.44,1.48
MAST2,1,0.66,1.25
CCDC60,1,0.4 (active),0.1
SSRP1,1,0.56,1.14
ACTRT3,1,0.88,0.91
KPNA3,1,0.84,0.58
OR8D2,1,0.27,0.55
PALD1,1,0.67,0.55
PCDHA13,1,1.31,0.65
EIF3M,1,0.29,0.64
RTTN,1,0.43 (active),0.24
ALCAM,1,0.46,1.09
FEM1C,1,0.69,0.92
RNF220,1,0.37,0.85
ANO2,1,0.39,1.6
TRDN,1,0.39 (active),0.54
TRPM8,1,0.76,1.31
TSPAN10,1,0.48,0.58
PRDM8,1,0.36,1.09
NPM3,1,0.55,0.64
RASA4,1,0.95,0.8
LGI4,1,0.84,1.17
NRG3,1,0.54,0.84
